Measurements from PMC6199744, “Development of Chemical Proteomics for the Folateome and Analysis of the Kinetoplastid Folateome” (ACS Infectious Diseases, 2018).
Further values from the same series stand in other lists.

System: L. major lysate proteins
Assay: Multitargeted bead mixture chemoproteomics, single concentration competition, proteome-wide
Type: binding
Conditions: for fold change: vehicle control = 1

SMILES: Nc1nc2[nH]cc(CCc3ccc(C(=O)N[C@@H](CCC(=O)O)C(=O)O)cc3)c2c(=O)[nH]1 [PTX, pemetrexed]
- fold change (protein LMJF.18.1510 P-TYPE H -ATPASE, PUTATIVE): 0.92
- fold change vs vehicle control (protein LMJF.19.0300 RNA BINDING PROTEIN, PUTATIVE): 0.73
- fold change (protein LMJF.19.0750 HY[…], CONSERVED): 1
- fold change (protein LMJF.19.0995 4-COUMARATE:COA LIGASE-LIKE PROTEIN): 1.06
- fold change (protein LMJF.19.1530 PEPT[…]-LIKE PROTEIN): 1.06
- fold change (protein LMJF.20.0100 PHOSPH[…] C, GLYCOSOMAL): 1.02
- fold change vs vehicle control (protein LMJF.20.1180 CALPAIN-LIKE CYSTEINE PEPTIDASE, PUTATIVE,CYSTEINE PEPTIDASE, CLAN CA, FAMILY C2, PUTATIVE): 0.98
- fold change (protein LMJF.21.0540 LA RNA BINDING PROTEIN, PUTATIVE): 0.97
- fold change vs vehicle control (protein LMJF.21.1060 40S RIBOSOMAL PROTEIN S23, PUTATIVE): 1.07
- fold change (protein LMJF.21.1090 T-COMPLEX PROTEIN 1, DELTA SUBUNIT, PUTATIVE): 0.97
- fold change vs vehicle control (protein LMJF.21.1552 RNA HELICASE, PUTATIVE): 0.93
- fold change (protein LMJF.21.1555 HY[…], CONSERVED): 0.95
- fold change (protein LMJF.21.1580 HY[…], UNKNOWN FUNCTION): 1.09
- fold change (protein LMJF.21.1700 […] 2 SUBUNIT, PUTATIVE): 0.92
- fold change (protein LMJF.21.1710 CYTOCHROME C OXIDASE SUBUNIT VI, PUTATIVE): 0.95
- fold change (protein LMJF.22.0270 HY[…], CONSERVED): 1.03
- fold change (protein LMJF.22.0420 40S RIBOSOMAL PROTEIN S15, PUTATIVE): 1.01
- fold change (protein LMJF.22.1540 ALANYL-TRNA SYNTHETASE, PUTATIVE): 0.89
- fold change (protein LMJF.22.1630 CCR4 […], PUTATIVE): 0.92
- fold change (protein LMJF.23.0110 GDP-MANNOSE PYROPHOSPHORYLASE): 0.88
- fold change (protein LMJF.23.0200 ENDORI[…]-PSP (PB5), PUTATIVE): 0.92
- fold change (protein LMJF.23.0640 HY[…], CONSERVED): 1.1
- fold change (protein LMJF.23.0810 ACTIN INTERACTING PROTEIN-LIKE PROTEIN): 0.84
- fold change vs vehicle control (protein LMJF.24.0280 DYNEIN INTERMEDIATE-CHAIN-LIKE PROTEIN): 0.92
- fold change (protein LMJF.24.0770 MALIC ENZYME, PUTATIVE): 0.91
- fold change (protein LMJF.24.1840 LYSOPHOSPHOLIPASE, PUTATIVE): 0.95
- fold change (protein LMJF.25.0120 ELECTRON TRANSFER FLAVOPROTEIN, PUTATIVE): 1.43
- fold change (protein LMJF.25.1540 HY[…], CONSERVED (mitochondrial RNA binding complex 1 subunit, putative)): 0.98
- fold change (protein LMJF.25.1710 PYRUVATE DEHYDROGENASE E1 BETA SUBUNIT, PUTATIVE): 1.02
- fold change (protein LMJF.26.0830 […], PUTATIVE,ASPARTATE--AMMONIA LIGASE, PUTATIVE): 1.04
- fold change (protein LMJF.26.1960 HY[…], CONSERVED): 0.92
- fold change (protein LMJF.26.2000 HY[…], CONSERVED (methyltransferase domain containing protein, putative)): 0.94
- fold change (protein LMJF.27.0130 HY[…], CONSERVED): 0.74
- fold change (protein LMJF.27.0880 2-OXOGLUTARATE DEHYDROGENASE SUBUNIT, PUTATIVE): 0.86
- fold change (protein LMJF.27.0930 ISOVALERYL-COA DEHYDROGENASE, PUTATIVE): 1.07
- fold change vs vehicle control (protein LMJF.27.1300 HY[…], CONSERVED): 0.98
- fold change (protein LMJF.27.1310 ARGINYL-TRNA SYNTHETASE, PUTATIVE): 0.98
- fold change (protein LMJF.27.2030 BRANCHED-CHAIN AMINO ACID AMINOTRANSFERASE, PUTATIVE): 0.92
- fold change (protein LMJF.27.2400 HEAT SHOCK PROTEIN DNAJ, PUTATIVE): 1.03
- fold change (protein LMJF.28.0980 P27 PROTEIN, PUTATIVE): 0.99
- fold change vs vehicle control (protein LMJF.28.2260 […] PROTEIN, PUTATIVE): 0.92
- fold change (protein LMJF.28.2420 2-OXOGLUTARATE DEHYDROGENASE, E2 COMPONENT, DIHYDROLIPOAMIDE SUCCINYLTRANSFERASE, PUTATIVE): 0.99
- fold change (protein LMJF.28.2510 ACYL-COA DEHYDROGENASE, PUTATIVE): 1.09
- fold change (protein LMJF.28.2680 […] ASSEMBLY PROTEIN-LIKE PROTEIN): 0.88
- fold change (protein LMJF.28.2750 ACTIVATED PROTEIN KINASE C RECEPTOR (LACK)): 0.97
- fold change (protein LMJF.29.0020 TRANSCRIPTION FACTOR-LIKE PROTEIN): 1
- fold change (protein LMJF.29.0820 CYSTEINE PEPTIDASE C (CPC)): 1.01
- fold change (protein LMJF.29.2240 AMINOPEPTIDASE, PUTATIVE,METALLO-PEPTIDASE, CLAN MA(E), FAMILY M1): 0.89
- fold change vs vehicle control (protein LMJF.30.0120 […] SYNTHASE): 1.05
- fold change (protein LMJF.30.0460 ASPARTYL-TRNA SYNTHETASE, PUTATIVE): 1.04
- fold change (protein LMJF.30.0630 HISTIDYL-TRNA SYNTHETASE, PUTATIVE): 1.06
- fold change (protein LMJF.30.0750 4-METHYL-5(BETA-HYDROXYETHYL)-THIAZOLE MON[…] PROTEIN, PUTATIVE): 0.94
- fold change (protein LMJF.30.2330 HY[…], UNKNOWN FUNCTION): 0.96
- fold change (protein LMJF.30.2350 SPHINGOSINE 1-PHOSPHATE LYASE): 1.01
- fold change (protein LMJF.30.2550 HEAT SHOCK 70-RELATED PROTEIN 1, MIT[…], PUTATIVE): 1.05
- fold change (protein LMJF.30.2970 GLYCERALDEHYDE 3-PHOSPHATE DEHYDROGENASE, GLYCOSOMAL): 0.92
- fold change (protein LMJF.30.3130 VALYL-TRNA SYNTHETASE, PUTATIVE): 0.85
- fold change (protein LMJF.30.3530 HY[…], CONSERVED): 0.95
- fold change (protein LMJF.30.3600 ATP SYNTHASE, EPSILON CHAIN, PUTATIVE): 0.9
- fold change (protein LMJF.31.0440 CYTOSKELETON-ASSOCIATED PROTEIN CAP5 5, PUTATIVE): 1.01
- fold change (protein LMJF.31.1110 HY[…], CONSERVED (emp24/gp25L/p24 family/GOLD, putative)): 0.95
- fold change (protein LMJF.31.2280 ADP-RI[…], PUTATIVE): 1.05
- fold change (protein LMJF.31.2790 ADP-RI[…], PUTATIVE): 0.97
- fold change (protein LMJF.32.0050 PROTEIN TRANSPORT PROTEIN SEC13, PUTATIVE): 0.87
- fold change vs vehicle control (protein LMJF.32.0400 ATP-DEPENDENT RNA HELICASE, PUTATIVE): 1.03
